This data set can be described thus: Chromatography of steroids on blank diol-silica column without binding ligand (column A). To be noted: 20° C.
Setting [1] is: 5 mM Am-Ac buffer pH 6.9, no ligand.

For `C[C@]12CCC(=O)C=C1CC[C@@H]1[C@@H]2C(=O)C[C@@]2(C)[C@H]1CC[C@]2(O)C(=O)CO` [Cortisone, cortisone], the “k′ (capacity factor), Column A” value is, setting by setting: under setting [1], 0.15; (PBS buffer pH 7.4, no ligand) 0.24.

On to `C[C@]12CCC(=O)C=C1CC[C@@H]1[C@@H]2[C@@H](O)C[C@@]2(C)[C@H]1CC[C@]2(O)C(=O)CO` [Hydrocortisone, hydrocortisone], for which the “k′ (capacity factor), Column A” value stood at 0.15 under setting [1] and 0.21 (PBS buffer pH 7.4, no ligand).

Turning to `C[C@]12C=CC(=O)C=C1CC[C@@H]1[C@@H]2[C@@H](O)C[C@@]2(C)[C@H]1CC[C@]2(O)C(=O)CO` [Prednisolone, prednisolone], the “k′ (capacity factor), Column A” value reads like this: under setting [1], 0.15; (PBS buffer pH 7.4, no ligand) 0.22.

(Values after US9448243B2, “Weak affinity chromatography” (priority 2013, dated 2016).)
